Test results reported in paper doi:10.1101/2025.06.19.660329.
These are yes or no findings as the source states them, for the method shown. Binding seen in cells or lysates may run through a third protein. Some binding calls cover weakened binding; strength is not graded here.

Biological target: T1, CD70 (human (endogenous in Raji)) (UniProt P32970)
T1 sequence: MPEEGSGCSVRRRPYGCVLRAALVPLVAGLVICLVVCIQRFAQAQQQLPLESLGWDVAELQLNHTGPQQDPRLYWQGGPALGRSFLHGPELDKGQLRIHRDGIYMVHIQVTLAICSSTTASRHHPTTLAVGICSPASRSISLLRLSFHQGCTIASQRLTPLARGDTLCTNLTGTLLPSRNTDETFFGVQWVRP
Test: proximity ligation

binding: binds
B1: CD20 (protein, UniProt P11836 1-297)
chain: MTTPRNSVNGTFPAEPMKGPIAMQSGPKPLFRRMSSLVGPTQSFFMRESKTLGAVQIMNGLFHIALGGLLMIPAGIYAPICVTVWYPLWGGIMYIISGSLLAATEKNSRKCLVKGKMIMNSLSLFAAISGMILSIMDILNIKISHFLKMESLNFIRAHTPYINIYNCEPANPSEKNSPSTQYCYSIQSLFLGILSVMLIFAFFQELVIAGIVENEWKRTCSRPKSNIVLLSAEEKKEQTIEIKEEVVGLTETSSQPKNEEDIEIIPIQEEEEEETETNFPEPPQDQESSPIENDSSP
